In the supplement of paper PMC10849652:
The other results are listed elsewhere or left out.

Protein sequences, listed by entry. Tags and fused reporters are not part of them. Lines headed by an entry give the natural chain unless they say otherwise; changes in a name come on top.
UniProt Q9C0D9, whole entry, looked up: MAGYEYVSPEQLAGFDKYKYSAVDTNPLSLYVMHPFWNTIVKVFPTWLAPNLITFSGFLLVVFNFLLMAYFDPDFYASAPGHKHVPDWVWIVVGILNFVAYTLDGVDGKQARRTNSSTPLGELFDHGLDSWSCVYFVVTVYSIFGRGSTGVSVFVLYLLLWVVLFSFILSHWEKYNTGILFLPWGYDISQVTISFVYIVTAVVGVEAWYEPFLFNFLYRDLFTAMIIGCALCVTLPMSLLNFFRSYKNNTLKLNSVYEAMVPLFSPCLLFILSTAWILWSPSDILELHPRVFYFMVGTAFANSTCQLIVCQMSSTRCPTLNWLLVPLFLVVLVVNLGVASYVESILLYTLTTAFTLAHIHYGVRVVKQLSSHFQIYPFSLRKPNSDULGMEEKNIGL
UniProt P50454: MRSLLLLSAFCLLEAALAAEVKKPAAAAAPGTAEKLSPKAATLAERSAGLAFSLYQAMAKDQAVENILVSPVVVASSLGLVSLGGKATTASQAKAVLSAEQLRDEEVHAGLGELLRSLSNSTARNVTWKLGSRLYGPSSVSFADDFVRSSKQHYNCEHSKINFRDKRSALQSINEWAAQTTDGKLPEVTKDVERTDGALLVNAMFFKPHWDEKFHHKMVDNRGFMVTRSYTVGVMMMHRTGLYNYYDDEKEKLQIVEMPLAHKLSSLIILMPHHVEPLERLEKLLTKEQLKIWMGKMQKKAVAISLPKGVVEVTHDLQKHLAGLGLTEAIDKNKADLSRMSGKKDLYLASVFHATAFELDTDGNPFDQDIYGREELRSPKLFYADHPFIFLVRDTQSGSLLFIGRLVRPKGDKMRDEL
UniProt Q9C0C4, whole entry, looked up: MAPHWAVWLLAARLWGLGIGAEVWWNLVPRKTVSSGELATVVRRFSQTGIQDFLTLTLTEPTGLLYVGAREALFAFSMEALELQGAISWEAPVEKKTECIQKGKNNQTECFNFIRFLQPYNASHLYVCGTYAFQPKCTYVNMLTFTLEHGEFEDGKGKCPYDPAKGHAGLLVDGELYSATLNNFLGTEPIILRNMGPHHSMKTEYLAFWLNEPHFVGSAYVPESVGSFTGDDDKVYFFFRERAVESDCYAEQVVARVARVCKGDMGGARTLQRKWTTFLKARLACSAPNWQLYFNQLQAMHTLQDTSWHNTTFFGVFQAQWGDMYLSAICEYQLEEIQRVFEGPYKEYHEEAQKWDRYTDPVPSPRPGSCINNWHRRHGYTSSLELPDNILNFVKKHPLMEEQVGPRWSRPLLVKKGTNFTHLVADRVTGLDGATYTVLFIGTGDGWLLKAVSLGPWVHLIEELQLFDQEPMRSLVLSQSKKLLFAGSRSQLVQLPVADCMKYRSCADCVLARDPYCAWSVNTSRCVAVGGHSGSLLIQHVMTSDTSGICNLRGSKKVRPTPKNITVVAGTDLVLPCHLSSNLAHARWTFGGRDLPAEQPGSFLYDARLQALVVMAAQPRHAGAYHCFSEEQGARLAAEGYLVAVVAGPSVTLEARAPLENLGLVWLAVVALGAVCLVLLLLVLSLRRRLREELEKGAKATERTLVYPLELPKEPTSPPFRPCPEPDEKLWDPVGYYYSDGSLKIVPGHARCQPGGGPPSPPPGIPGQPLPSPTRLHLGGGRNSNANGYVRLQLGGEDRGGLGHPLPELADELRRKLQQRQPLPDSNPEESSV
UniProt Q99719: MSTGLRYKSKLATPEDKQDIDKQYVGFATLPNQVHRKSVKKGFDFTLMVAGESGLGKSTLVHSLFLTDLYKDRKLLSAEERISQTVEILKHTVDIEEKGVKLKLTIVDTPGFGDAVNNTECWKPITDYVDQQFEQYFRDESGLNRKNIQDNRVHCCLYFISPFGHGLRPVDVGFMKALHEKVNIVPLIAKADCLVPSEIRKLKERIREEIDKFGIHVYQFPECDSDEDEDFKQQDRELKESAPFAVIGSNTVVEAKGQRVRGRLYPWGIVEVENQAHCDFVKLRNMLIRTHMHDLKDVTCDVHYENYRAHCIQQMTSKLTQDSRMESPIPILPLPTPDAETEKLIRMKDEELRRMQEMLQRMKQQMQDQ
UniProt O75533, whole entry, looked up: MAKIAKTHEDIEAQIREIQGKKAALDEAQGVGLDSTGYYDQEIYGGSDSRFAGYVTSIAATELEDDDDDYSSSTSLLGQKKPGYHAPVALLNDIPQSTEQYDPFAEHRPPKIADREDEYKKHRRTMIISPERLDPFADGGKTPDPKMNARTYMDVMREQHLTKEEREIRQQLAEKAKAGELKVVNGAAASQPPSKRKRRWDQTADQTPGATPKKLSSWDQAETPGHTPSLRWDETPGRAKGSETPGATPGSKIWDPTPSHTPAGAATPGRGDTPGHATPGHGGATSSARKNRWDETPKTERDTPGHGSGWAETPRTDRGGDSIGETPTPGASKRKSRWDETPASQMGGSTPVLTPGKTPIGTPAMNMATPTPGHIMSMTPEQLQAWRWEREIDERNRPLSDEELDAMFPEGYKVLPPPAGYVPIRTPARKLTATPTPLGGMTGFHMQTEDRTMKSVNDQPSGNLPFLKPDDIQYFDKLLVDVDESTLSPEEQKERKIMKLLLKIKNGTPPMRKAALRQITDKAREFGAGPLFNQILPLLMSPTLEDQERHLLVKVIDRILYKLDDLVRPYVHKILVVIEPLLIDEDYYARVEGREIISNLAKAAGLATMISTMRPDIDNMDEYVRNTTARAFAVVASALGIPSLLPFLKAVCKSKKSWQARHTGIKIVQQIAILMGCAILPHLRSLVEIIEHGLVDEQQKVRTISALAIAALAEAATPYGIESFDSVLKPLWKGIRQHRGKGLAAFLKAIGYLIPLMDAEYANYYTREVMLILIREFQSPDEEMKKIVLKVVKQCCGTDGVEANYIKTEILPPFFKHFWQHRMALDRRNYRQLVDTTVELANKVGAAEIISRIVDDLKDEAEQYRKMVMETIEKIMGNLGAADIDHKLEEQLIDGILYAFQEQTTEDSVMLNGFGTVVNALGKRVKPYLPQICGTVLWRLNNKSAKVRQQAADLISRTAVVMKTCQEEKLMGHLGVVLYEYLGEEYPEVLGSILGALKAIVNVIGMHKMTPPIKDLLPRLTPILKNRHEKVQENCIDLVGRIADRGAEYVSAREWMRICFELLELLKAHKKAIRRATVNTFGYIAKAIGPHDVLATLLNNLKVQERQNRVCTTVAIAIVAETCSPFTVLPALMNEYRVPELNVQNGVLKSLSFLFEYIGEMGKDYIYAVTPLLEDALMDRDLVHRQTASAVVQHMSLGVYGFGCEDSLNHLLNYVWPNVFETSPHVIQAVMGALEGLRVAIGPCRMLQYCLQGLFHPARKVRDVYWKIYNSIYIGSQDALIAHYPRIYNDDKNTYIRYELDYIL
UniProt P29353: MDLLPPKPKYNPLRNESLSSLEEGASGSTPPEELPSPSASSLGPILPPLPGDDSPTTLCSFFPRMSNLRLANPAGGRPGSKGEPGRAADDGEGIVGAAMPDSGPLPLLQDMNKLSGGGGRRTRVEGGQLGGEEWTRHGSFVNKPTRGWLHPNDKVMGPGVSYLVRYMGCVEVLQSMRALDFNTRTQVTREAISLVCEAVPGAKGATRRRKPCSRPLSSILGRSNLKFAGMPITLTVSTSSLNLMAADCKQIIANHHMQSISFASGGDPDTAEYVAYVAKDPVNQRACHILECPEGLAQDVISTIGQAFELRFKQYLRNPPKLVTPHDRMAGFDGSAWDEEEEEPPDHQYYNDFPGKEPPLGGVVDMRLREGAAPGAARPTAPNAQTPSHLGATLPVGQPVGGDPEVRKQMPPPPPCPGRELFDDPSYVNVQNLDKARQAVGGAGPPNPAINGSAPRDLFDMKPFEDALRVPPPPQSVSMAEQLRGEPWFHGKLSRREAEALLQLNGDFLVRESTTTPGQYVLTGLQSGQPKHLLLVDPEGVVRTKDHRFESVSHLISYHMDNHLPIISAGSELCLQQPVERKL
UniProt Q9H9B4: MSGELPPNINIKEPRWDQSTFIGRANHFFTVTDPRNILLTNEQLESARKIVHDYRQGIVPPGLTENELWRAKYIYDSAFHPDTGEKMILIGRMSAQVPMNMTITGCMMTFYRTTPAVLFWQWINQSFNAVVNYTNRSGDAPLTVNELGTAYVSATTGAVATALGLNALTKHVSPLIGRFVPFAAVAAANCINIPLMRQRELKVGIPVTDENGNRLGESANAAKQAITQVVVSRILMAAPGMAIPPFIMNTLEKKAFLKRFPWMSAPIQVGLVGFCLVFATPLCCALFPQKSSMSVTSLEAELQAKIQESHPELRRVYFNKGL
UniProt Q96NB2: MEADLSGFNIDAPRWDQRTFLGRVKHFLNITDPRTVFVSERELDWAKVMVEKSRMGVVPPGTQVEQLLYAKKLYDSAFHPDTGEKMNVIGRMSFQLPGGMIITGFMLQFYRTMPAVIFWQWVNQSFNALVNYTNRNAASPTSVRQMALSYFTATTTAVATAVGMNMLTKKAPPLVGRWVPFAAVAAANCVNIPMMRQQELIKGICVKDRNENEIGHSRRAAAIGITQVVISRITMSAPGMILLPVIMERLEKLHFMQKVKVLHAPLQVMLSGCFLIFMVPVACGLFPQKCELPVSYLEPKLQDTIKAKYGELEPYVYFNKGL
UniProt P05543: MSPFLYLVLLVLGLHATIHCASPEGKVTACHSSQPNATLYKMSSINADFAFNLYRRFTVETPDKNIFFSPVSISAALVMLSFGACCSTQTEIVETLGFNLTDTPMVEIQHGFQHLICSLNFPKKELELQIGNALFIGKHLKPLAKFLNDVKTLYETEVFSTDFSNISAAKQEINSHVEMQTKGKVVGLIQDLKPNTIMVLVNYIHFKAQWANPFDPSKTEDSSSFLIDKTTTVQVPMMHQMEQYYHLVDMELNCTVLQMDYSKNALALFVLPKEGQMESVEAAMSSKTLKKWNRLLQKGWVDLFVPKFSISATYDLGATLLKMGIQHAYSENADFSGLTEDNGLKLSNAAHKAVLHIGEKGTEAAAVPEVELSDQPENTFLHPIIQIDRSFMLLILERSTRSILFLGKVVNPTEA
UniProt Q15427: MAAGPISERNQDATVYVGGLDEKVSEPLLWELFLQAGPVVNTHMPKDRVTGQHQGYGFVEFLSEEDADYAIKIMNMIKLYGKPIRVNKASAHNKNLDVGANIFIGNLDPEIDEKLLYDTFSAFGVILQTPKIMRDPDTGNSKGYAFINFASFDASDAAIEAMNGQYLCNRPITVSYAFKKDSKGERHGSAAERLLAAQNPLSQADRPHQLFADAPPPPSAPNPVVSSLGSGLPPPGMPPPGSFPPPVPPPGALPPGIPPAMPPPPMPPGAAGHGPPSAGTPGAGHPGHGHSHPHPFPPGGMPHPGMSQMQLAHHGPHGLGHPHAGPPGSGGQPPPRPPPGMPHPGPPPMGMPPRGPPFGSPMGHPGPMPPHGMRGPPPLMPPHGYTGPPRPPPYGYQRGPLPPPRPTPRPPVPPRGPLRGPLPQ
UniProt Q9UBV2: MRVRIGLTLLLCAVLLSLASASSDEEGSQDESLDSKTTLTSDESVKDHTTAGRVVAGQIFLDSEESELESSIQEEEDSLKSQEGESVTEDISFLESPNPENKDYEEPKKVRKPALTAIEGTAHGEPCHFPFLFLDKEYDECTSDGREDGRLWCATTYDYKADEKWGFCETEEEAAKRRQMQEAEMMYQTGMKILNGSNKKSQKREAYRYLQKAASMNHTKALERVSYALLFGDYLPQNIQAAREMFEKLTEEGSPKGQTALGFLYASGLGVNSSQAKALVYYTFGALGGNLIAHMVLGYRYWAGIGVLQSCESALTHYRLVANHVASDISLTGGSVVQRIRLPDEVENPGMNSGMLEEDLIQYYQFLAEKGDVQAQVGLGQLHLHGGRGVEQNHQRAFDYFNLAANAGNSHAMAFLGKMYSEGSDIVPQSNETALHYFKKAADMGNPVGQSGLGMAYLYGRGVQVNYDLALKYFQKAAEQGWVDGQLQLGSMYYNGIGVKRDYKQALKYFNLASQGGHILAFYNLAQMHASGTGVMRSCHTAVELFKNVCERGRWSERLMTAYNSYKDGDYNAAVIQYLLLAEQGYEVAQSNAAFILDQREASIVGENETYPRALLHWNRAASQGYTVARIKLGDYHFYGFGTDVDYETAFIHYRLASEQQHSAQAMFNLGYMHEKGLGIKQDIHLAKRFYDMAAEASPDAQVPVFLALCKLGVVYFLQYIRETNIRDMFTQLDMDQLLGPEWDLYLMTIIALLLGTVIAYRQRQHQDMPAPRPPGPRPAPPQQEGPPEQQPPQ
UniProt Q9BRV8: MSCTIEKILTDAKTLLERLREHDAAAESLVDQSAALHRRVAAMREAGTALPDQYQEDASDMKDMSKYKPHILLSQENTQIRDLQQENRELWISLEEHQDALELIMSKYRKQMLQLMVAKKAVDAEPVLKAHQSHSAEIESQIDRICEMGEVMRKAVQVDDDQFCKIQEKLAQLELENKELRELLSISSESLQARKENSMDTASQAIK
UniProt P60468, whole entry, looked up: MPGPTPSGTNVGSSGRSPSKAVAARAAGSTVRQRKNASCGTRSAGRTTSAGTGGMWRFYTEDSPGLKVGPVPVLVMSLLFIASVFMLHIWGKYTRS

What was measured:
Assay in all cases: log2 fold change, soluble protein after heating vs DMSO (PISA); higher = thermal stabilisation; K562 cells, 10 uM, 30 min; active = over 0.2 and 3.5 SD of the protein, either way, in both replicates (recomputed)
[1] = compound: COC1=CC=C(C=C1)CN2C=CC3=C2C=C(C=C3)C(=O)NO
Summary of the method: (§1)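 Soluble protein was quantified by TMTpro 16plex LC-MS/MS after channel sums were equalised. It was obtained as the supernatant after 21,000xg for 90 min from pooled aliquots of K562 cells (2×10^6 cells/mL, 10 μM compound, 30 min) heated for 3 min across 48°C-58°C and extracted in PBS with 0.5% NP-40 at 4°C. Thermal stability values are relative to control samples and come from duplicates. They are given as log2 fold changes.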

filanesib = compound: CON(C)C(=O)N1N=C(c2cc(F)ccc2F)S[C@@]1(CCCN)c1ccccc1 [filanesib]
Summary of the method: as §1

zotarolimus = compound: CO[C@H]1C[C@@H]2CC[C@@H](C)[C@@](O)(O2)C(=O)C(=O)N2CCCC[C@H]2C(=O)O[C@H]([C@H](C)C[C@@H]2CC[C@H](n3cnnn3)[C@H](OC)C2)CC(=O)[C@H](C)/C=C(\C)[C@@H](O)[C@@H](OC)C(=O)[C@H](C)C[C@H](C)/C=C/C=C/C=C/1C [zotarolimus]
Summary of the method: as §1

idasanutlin = compound: COc1cc(C(=O)O)ccc1NC(=O)[C@@H]1N[C@@H](CC(C)(C)C)[C@](C#N)(c2ccc(Cl)cc2F)[C@H]1c1cccc(Cl)c1F [idasanutlin]
Summary of the method: as §1

alisertib = compound: COc1cc(Nc2ncc3c(n2)-c2ccc(Cl)cc2C(c2c(F)cccc2OC)=NC3)ccc1C(=O)O [alisertib]
Summary of the method: as §1

[2] = compound: COc1cc2nc(-c3cc(F)ccc3O)nc(N[C@@H]3CNC[C@H]3C(C)(C)O)c2cc1OC
Summary of the method: as §1

gefitinib = compound: COc1cc2ncnc(Nc3ccc(F)c(Cl)c3)c2cc1OCCCN1CCOCC1 [gefitinib]
Summary of the method: as §1

[3] = compound: COc1cccc2cc(-c3nc([C@H]4CC[C@H](C(=O)O)CC4)n4ncnc(N)c34)[nH]c12
Summary of the method: as §1

lapatinib = compound: CS(=O)(=O)CCNCc1ccc(-c2ccc3ncnc(Nc4ccc(OCc5cccc(F)c5)c(Cl)c4)c3c2)o1 [lapatinib]
Summary of the method: as §1

pictilisib = compound: CS(=O)(=O)N1CCN(Cc2cc3nc(-c4cccc5[nH]ncc45)nc(N4CCOCC4)c3s2)CC1 [pictilisib]
Summary of the method: as §1

Measured: log2 fold change

SELENOI (UniProt Q9C0D9)
inactive: [1] 0.106

SESN1 isoform 2 (UniProt Q9Y6P5)
inactive: [1] -0.071

SGPL1 (UniProt O95470)
inactive: [1] -0.064 | filanesib 0.107 | zotarolimus -0.011 | idasanutlin 0.051 | alisertib -0.046 | [2] 0.012 | gefitinib 0.001 | [3] -0.115 | lapatinib 0.04 | pictilisib -0.013

SH3BP1 (UniProt Q9Y3L3)
inactive: [1] 0.014 | filanesib 0.01 | zotarolimus 0.018 | idasanutlin -0.007 | alisertib -0.022 | [2] 0.054 | gefitinib 0.003 | [3] 0.019 | lapatinib 0.011 | pictilisib 0.097

SERPINH1 (UniProt P50454)
inactive: [1] -0.025 | filanesib -0.006 | zotarolimus 0.023 | idasanutlin -0.004 | alisertib -0.065 | [2] -0.003 | gefitinib 0.008 | [3] -0.009 | lapatinib 0.03 | pictilisib 0.028

SGF29 (UniProt Q96ES7)
inactive: [1] -0.033 | filanesib 0 | zotarolimus -0.024 | idasanutlin 0.014 | alisertib -0.113 | [2] 0.014 | gefitinib 0.002 | [3] 0.038 | lapatinib 0.033 | pictilisib 0.003

SIGMAR1 (UniProt Q99720)
inactive: [1] -0.031 | filanesib -0.005 | zotarolimus -0.048 | idasanutlin -0.059 | alisertib -0.149 | [2] -0.099 | gefitinib 0.01 | [3] 0.089 | lapatinib -0.055 | pictilisib -0.012

Reprinted from the entries so far (two entries):
SGPL1 (UniProt O95470)
inactive: [1] -0.064 | filanesib 0.107 | zotarolimus -0.011 | idasanutlin 0.051 | alisertib -0.046 | [2] 0.012 | gefitinib 0.001 | [3] -0.115 | lapatinib 0.04 | pictilisib -0.013

SH3BP1 (UniProt Q9Y3L3)
inactive: [1] 0.014 | filanesib 0.01 | zotarolimus 0.018 | idasanutlin -0.007 | alisertib -0.022 | [2] 0.054 | gefitinib 0.003 | [3] 0.019 | lapatinib 0.011 | pictilisib 0.097

Following part

SERPINI1 (UniProt Q99574)
inactive: [1] 0.02 | filanesib 0.022 | zotarolimus -0.073 | idasanutlin -0.163 | alisertib -0.014 | [2] 0.043 | gefitinib -0.026 | [3] -0.056 | lapatinib 0.049 | pictilisib 0.038

SEMA4C (UniProt Q9C0C4)
inactive: [1] -0.011 | filanesib 0.042 | zotarolimus -0.045 | idasanutlin 0.028 | alisertib -0.041 | [2] 0.018 | gefitinib 0.017 | [3] 0.092 | lapatinib 0.006 | pictilisib 0.074

SEPTIN5 (UniProt Q99719)
inactive: [1] 0.034 | filanesib -0.003 | zotarolimus 0.013 | idasanutlin -0.067 | alisertib -0.044 | [2] 0 | gefitinib 0.006 | [3] 0.02 | lapatinib -0.035 | pictilisib 0.08

SIRT1 (UniProt Q96EB6)
inactive: [1] 0.011 | filanesib -0.006 | zotarolimus 0.018 | idasanutlin 0.161 | alisertib -0.022 | [2] -0.006 | gefitinib -0.035 | [3] -0.062 | lapatinib -0.019 | pictilisib 0.026

SF3B1 (UniProt O75533)
inactive: [1] 0.08 | filanesib 0.01 | zotarolimus 0.027 | idasanutlin 0.003 | alisertib -0.001 | [2] -0.044 | gefitinib 0.007 | [3] -0.013 | lapatinib 0.038 | pictilisib -0.068

SEC61A2 (UniProt Q9H9S3)
inactive: [1] -0.007 | filanesib -0.049 | zotarolimus -0.042 | idasanutlin -0.1 | alisertib -0.016 | [2] -0.041 | gefitinib 0.023 | [3] 0.043 | lapatinib 0.022 | pictilisib -0.007

SHC1 isoform 6 (UniProt P29353)
inactive: [1] -0.004 | filanesib 0 | zotarolimus -0.032 | idasanutlin 0.005 | alisertib -0.071 | [2] 0.011 | gefitinib 0.015 | [3] 0.032 | lapatinib -0.001 | pictilisib 0.053

SEL1L3 (UniProt Q68CR1)
inactive: [1] -0.128 | filanesib 0.11 | zotarolimus 0.053 | idasanutlin 0.085 | alisertib -0.116 | [2] -0.074 | gefitinib 0.049 | [3] 0.073 | lapatinib 0.066 | pictilisib 0.011

SERBP1 (UniProt Q8NC51)
inactive: [1] -0.107 | filanesib 0.184 | zotarolimus -0.02 | idasanutlin 0.115 | alisertib -0.038 | [2] -0.021 | gefitinib -0.003 | [3] -0.001 | lapatinib -0.038 | pictilisib -0.035

SGTA (UniProt O43765)
inactive: [1] 0.051 | filanesib -0.061 | zotarolimus 0.025 | idasanutlin -0.002 | alisertib -0.128 | [2] 0 | gefitinib -0.008 | [3] 0.006 | lapatinib -0.014 | pictilisib 0.045

SELENBP1 isoform 4 (UniProt Q13228)
inactive: [1] 0.112 | filanesib -0.071 | zotarolimus 0.008 | idasanutlin -0.012 | alisertib -0.082 | [2] -0.017 | gefitinib -0.008 | [3] 0.041 | lapatinib -0.012 | pictilisib -0.006

SFXN1 (UniProt Q9H9B4)
inactive: [1] 0.086 | filanesib -0.11 | zotarolimus 0.009 | idasanutlin -0.097 | alisertib -0.064 | [2] -0.132 | gefitinib 0.003 | [3] 0.018 | lapatinib 0.017 | pictilisib -0.052

SFXN2 (UniProt Q96NB2)
inactive: [1] -0.024 | filanesib -0.101 | zotarolimus -0.015 | idasanutlin -0.005 | alisertib 0.063 | [2] -0.049 | gefitinib 0.036 | [3] 0.08 | lapatinib 0.037 | pictilisib 0.052

SHMT1 (UniProt P34896)
inactive: [1] 0.048 | filanesib -0.088 | zotarolimus 0.006 | idasanutlin -0.031 | alisertib -0.105 | [2] 0.038 | gefitinib 0 | [3] 0.041 | lapatinib 0.014 | pictilisib 0.069

SERPINA7 (UniProt P05543)
inactive: [1] -0.213 | filanesib 0.251 | zotarolimus -0.206 | idasanutlin 0.071 | alisertib 0.052 | [2] 0.008 | gefitinib -0.157 | [3] 0.381 | lapatinib -0.017 | pictilisib -0.088

SF3B4 (UniProt Q15427)
inactive: [1] -0.011 | filanesib 0.147 | zotarolimus -0.053 | idasanutlin 0.06 | alisertib -0.15 | [2] -0.018 | gefitinib -0.009 | [3] -0.086 | lapatinib 0.042 | pictilisib 0.001

SLAIN2 (UniProt Q9P270)
inactive: [1] 0.125 | filanesib 0.002 | zotarolimus -0.029 | idasanutlin 0.119 | alisertib -0.061 | [2] -0.082 | gefitinib 0.062 | [3] 0.03 | lapatinib 0.029 | pictilisib -0.026

SEPSECS (UniProt Q9HD40)
inactive: [1] 0.039 | filanesib -0.055 | zotarolimus 0.016 | idasanutlin -0.039 | alisertib 0.794 | [2] -0.052 | gefitinib 0.016 | [3] 0.023 | lapatinib 0.018 | pictilisib 0.078

SEL1L (UniProt Q9UBV2)
inactive: [1] -0.022 | filanesib -0.05 | zotarolimus 0.014 | idasanutlin 0 | alisertib -0.019 | [2] 0.008 | gefitinib -0.008 | [3] -0.016 | lapatinib 0.025 | pictilisib 0.027

SIKE1 (UniProt Q9BRV8)
inactive: [1] -0.071 | filanesib 0.02 | zotarolimus 0.052 | idasanutlin 0.03 | alisertib 0.324 | [2] 0.045 | gefitinib 0.11 | [3] 0.151 | lapatinib -0.022 | pictilisib 0.036

SH3GLB1 isoform 2 (UniProt Q9Y371)
inactive: [1] 0.035 | filanesib 0.041 | zotarolimus 0.007 | idasanutlin 0.075 | alisertib -0.022 | [2] -0.057 | gefitinib -0.011 | [3] -0.067 | lapatinib 0.031 | pictilisib -0.064

SENP6 (UniProt Q9GZR1)
inactive: [1] 0.029 | filanesib 0.115 | zotarolimus -0.077 | idasanutlin 0.088 | alisertib -0.016 | [2] 0.016 | gefitinib 0.028 | [3] 0.039 | lapatinib 0.066 | pictilisib 0.076

SKP1 (UniProt P63208)
inactive: [1] 0.209 | filanesib -0.095 | zotarolimus 0.09 | idasanutlin 0.027 | alisertib -0.005 | [2] -0.099 | gefitinib 0.001 | [3] -0.008 | lapatinib 0.01 | pictilisib -0.121

SEC61B (UniProt P60468)
inactive: [1] -0.17 | filanesib -0.029 | zotarolimus -0.054 | idasanutlin 0.021 | alisertib -0.011 | [2] -0.005 | gefitinib 0.026 | [3] 0.063 | lapatinib -0.026 | pictilisib -0.056
